This is one part of the list. Single values are uncertain, as repeats are few or missing.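 Imaging used 1,536-well plates; nuclei positive for cleaved PARP by antibody were divided by total DNA-stained nuclei to yield the apoptosis fraction. Doses for screening kept most cells viable, and cell lines differ markedly in resting and induced cleaved-PARP levels.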
Tests used:
Assay in all cases: cleaved PARP positive nuclei fraction relative to DMSO control; melanoma cells; higher = more apoptosis
Conditions in all cases: library dose: low library concentration; 72 h
[1] = test system: WM115
[2] = test system: WM1716
[3] = test system: WM1745
[4] = test system: WM3526
[5] = test system: WM3619
[6] = test system: WM451Lu

Structure (SMILES) | cleaved PARP positive nuclei fraction [1] [%] | cleaved PARP positive nuclei fraction [2] [%] | cleaved PARP positive nuclei fraction [3] [%] | cleaved PARP positive nuclei fraction [4] [%] | cleaved PARP positive nuclei fraction [5] [%] | cleaved PARP positive nuclei fraction [6] [%]
Cn1sc(=O)n(Cc2ccccc2)c1=O + C/C(O)=C(\C#N)C(=O)Nc1cc(Br)ccc1Br [LFM-A13] (first compound 0.4 µM, partner dose 2 µM) | 121 | 33.4 | 77.4 | 36.7 | 158 | 85.2
CCc1ccc(CCOc2ccc(CC3SC(=O)NC3=O)cc2)nc1 (configuration not stated) [pioglitazone] + Cc1cc(SCc2sc(-c3ccc(C(F)(F)F)c(F)c3)nc2C)ccc1OCC(=O)O [GW0742] (first compound 2 µM, partner dose 2 µM) | 143 | 157 | 110 | 186 | 66.5 | 43.3
C[As](C)SC[C@H](NC(=O)CC[C@H](N)C(=O)O)C(=O)NCC(=O)O [Darinaparsin] + COc1cc2ncnc(Nc3ccc(Oc4ccccc4)cc3)c2cc1OC [SrcI1] (first compound 0.4 µM, partner dose 2 µM) | 39.8 | 104 | 121 | 134 | 76.2 | 328
CC1(C)NC(=O)N(c2ccc([N+](=O)[O-])c(C(F)(F)F)c2)C1=O [nilutamide] + C/C(O)=C(\C#N)C(=O)Nc1cc(Br)ccc1Br [LFM-A13] (first compound 1 µM, partner dose 2 µM) | 192 | 89.5 | 118 | 36.2 | 97 | 60.1
Cn1cc(C2=C(c3cn(C4CCN(Cc5ccccn5)CC4)c4ccccc34)C(=O)NC2=O)c2ccccc21 [Enzastaurin] + CCCCCCCCCCCC1=C(O)C(=O)C=C(O)C1=O [Embelin] (first compound 0.8 µM, partner dose 1.2 µM) | 121 | 187 | 90.8 | 147 | 94.9 | 53.8
Nc1ncn([C@H]2C[C@H](O)[C@@H](CO)O2)c(=O)n1 [decitabine] + Cc1cc(SCc2sc(-c3ccc(C(F)(F)F)c(F)c3)nc2C)ccc1OCC(=O)O [GW0742] (first compound 0.1 µM, partner dose 2 µM) | 125 | 58.4 | 107 | 65 | 80 | 121
N.N.[Cl][Pt][Cl] [cisplatin] + Cn1c(Nc2ccc(C(F)(F)F)cc2)nc2cc(Oc3ccnc(-c4ncc(C(F)(F)F)[nH]4)c3)ccc21 [CHIR265] (first compound 1.6 µM, partner dose 0.08 µM) | 77.5 | 148 | 96.6 | 39.1 | 85 | 99
O=C1NC(=O)/C(=C/c2ccc(-c3ccc(F)cc3O)o2)S1 + O=C(Oc1ccc([N+](=O)[O-])cc1)N1CCC(C(O)(c2ccc3c(c2)OCO3)c2ccc3c(c2)OCO3)CC1 [JZL184] (first compound 1 µM, partner dose 1 µM) | 190 | 137 | 97.4 | 70.6 | 70.2 | 109
O=C(CCCCCCC(=O)Nc1ccccc1)NO [vorinostat] + C/C(O)=C(\C#N)C(=O)Nc1cc(Br)ccc1Br [LFM-A13] (first compound 0.08 µM, partner dose 2 µM) | 94.5 | 35.9 | 99.1 | 135 | 105 | 65.1
Cn1cc(C2=C(c3cn(C4CCN(Cc5ccccn5)CC4)c4ccccc34)C(=O)NC2=O)c2ccccc21 [Enzastaurin] + Clc1ccc(Nc2nnc(Cc3ccncc3)c3ccccc23)cc1 [vatalanib] (first compound 0.8 µM, partner dose 2 µM) | 17.6 | 85.2 | 88.6 | 38.5 | 87.6 | 268
C[C@]12O[C@H](C[C@]1(O)CO)n1c3ccccc3c3c4c(c5c6ccccc6n2c5c31)CNC4=O [Lestaurtinib] + CCN(CC)CCNC(=O)c1c(C)[nH]c(/C=C2\C(=O)Nc3ccc(F)cc32)c1C [sunitinib] (first compound 0.004 µM, partner dose 0.4 µM) | 176 | 50.9 | 107 | 100 | 92.7 | 45
C[C@]12O[C@H](C[C@]1(O)CO)n1c3ccccc3c3c4c(c5c6ccccc6n2c5c31)CNC4=O [Lestaurtinib] + CNC(=O)c1cc(Oc2ccc(NC(=O)Nc3ccc(Cl)c(C(F)(F)F)c3)cc2)ccn1 [sorafenib] (first compound 0.004 µM, partner dose 0.4 µM) | 169 | 163 | 108 | 22.8 | 101 | 109

2 entries picked at random from the list so far, as already listed:
Structure (SMILES) | cleaved PARP positive nuclei fraction [1] [%] | cleaved PARP positive nuclei fraction [2] [%] | cleaved PARP positive nuclei fraction [3] [%] | cleaved PARP positive nuclei fraction [4] [%] | cleaved PARP positive nuclei fraction [5] [%] | cleaved PARP positive nuclei fraction [6] [%]
Nc1ncn([C@H]2C[C@H](O)[C@@H](CO)O2)c(=O)n1 [decitabine] + Cc1cc(SCc2sc(-c3ccc(C(F)(F)F)c(F)c3)nc2C)ccc1OCC(=O)O [GW0742] (first compound 0.1 µM, partner dose 2 µM) | 125 | 58.4 | 107 | 65 | 80 | 121
Cn1cc(C2=C(c3cn(C4CCN(Cc5ccccn5)CC4)c4ccccc34)C(=O)NC2=O)c2ccccc21 [Enzastaurin] + Clc1ccc(Nc2nnc(Cc3ccncc3)c3ccccc23)cc1 [vatalanib] (first compound 0.8 µM, partner dose 2 µM) | 17.6 | 85.2 | 88.6 | 38.5 | 87.6 | 268
